US20250164502A1, “Mutant Human Nax Proteins and Screening Methods” (Genentech, Inc., priority 2021, published 2025)
For at least one compound, name, drawing or mass did not settle the structure.

Chains of the proteins cited; added tags and fusions are not shown. Lines headed by an entry give the natural chain unless they say otherwise; changes in a name come on top.
UniProt Q01118: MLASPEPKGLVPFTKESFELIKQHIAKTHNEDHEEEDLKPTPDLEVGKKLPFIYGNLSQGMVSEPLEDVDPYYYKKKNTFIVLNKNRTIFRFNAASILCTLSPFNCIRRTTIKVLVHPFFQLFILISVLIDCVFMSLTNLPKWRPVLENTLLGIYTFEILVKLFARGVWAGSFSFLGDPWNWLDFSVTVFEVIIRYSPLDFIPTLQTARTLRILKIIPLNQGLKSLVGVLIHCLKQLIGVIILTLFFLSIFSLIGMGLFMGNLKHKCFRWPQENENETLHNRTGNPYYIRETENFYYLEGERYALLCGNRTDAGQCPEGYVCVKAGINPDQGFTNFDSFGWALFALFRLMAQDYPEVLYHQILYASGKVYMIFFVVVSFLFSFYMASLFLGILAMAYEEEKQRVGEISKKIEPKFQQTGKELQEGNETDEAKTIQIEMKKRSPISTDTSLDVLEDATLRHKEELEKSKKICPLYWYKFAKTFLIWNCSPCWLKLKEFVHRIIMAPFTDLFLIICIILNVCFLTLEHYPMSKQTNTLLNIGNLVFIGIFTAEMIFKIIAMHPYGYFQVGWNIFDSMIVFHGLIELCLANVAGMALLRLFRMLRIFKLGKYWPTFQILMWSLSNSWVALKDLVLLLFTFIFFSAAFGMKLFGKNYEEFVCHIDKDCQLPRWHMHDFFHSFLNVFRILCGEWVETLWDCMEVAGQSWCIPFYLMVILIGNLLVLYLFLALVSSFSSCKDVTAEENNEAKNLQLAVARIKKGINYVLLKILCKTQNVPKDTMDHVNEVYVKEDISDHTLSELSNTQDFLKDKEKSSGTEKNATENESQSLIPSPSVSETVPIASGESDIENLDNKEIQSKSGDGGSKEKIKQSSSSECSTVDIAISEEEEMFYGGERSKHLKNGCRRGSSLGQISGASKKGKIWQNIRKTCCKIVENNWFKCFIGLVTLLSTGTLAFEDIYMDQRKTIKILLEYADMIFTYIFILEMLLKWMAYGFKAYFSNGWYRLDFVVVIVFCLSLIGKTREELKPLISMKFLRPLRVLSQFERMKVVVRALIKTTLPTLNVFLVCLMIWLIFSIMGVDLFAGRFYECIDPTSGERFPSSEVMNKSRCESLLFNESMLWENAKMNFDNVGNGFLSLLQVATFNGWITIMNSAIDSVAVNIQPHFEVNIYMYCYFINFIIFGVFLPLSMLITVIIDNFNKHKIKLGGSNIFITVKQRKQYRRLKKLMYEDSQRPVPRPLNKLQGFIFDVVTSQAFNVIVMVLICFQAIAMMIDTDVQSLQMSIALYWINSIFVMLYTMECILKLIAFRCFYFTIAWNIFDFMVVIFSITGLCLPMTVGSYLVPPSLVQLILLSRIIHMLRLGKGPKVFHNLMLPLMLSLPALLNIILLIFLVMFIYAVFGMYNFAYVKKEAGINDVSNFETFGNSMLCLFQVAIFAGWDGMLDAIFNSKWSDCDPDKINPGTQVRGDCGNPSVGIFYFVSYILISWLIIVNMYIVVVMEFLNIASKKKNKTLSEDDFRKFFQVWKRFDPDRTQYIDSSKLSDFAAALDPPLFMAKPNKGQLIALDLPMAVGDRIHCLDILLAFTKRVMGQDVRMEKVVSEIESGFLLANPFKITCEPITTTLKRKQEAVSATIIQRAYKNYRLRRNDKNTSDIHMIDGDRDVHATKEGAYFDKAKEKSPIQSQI

Target: T1, human NaX (Homo sapiens, UniProt Q01118)
T1 construct: expressed in transfected cells; host or cells: Xenopus laevis oocytes injected with in vitro transcribed capped RNA
Assay: Two-electrode voltage-clamp of oocytes expressing human NaX with classical NaV channel activators
Format: cell-based
Settings: different voltage-step protocols in oocytes; wild-type human NaX
Text: FIGS. 8A-D show functional evaluation of human NaX in Xenopus laevis oocytes. FIGS. 8A, left panel, and 8B, left panel, show representative currents from Xenopus laevis oocytes expressing human NaX with the indicated pharmacological modulator present in the extracellular solution. […] FIGS. 8C, left panel, and 8D, left panel, show representative currents from oocytes expressing human NaX with the indicated proteins co-expressed. FIG. 8C, right panel, show I-V plots with steps between +80 and −100 mV, in 20 mV increments, from a HP of 0 mV.
Oocytes were prepared as previously described^68. Healthy-looking stage V-VI oocytes were injected with 2.5-40 ng of RNA (in 5-41 nL) using a Nanoliter 2010 injector (World Precision Instruments). When excluding one or more construct, an equivalent volume of nuclease-free water was added to maintain a constant RNA concentration across different construct combinations. Injected oocytes were kept at 18° C., 140 rpm, in ND96 supplemented with 50 μg/mL gentamicin and 50 μg/mL tetracycline (in mM: 96 NaCl, 2 KCl, 1 MgCl2, 1.8 CaCl2), 2.5 sodium pyruvate, 0.5 theophylline, 5 HEPES; pH 7.4 with NaOH) for two to five days. […] The voltage dependence of ion current was determined using a protocol consisting of steps from a holding potential of 0 mV to voltages ranging from +80 to −100 mV for 1 s in 20 mV increment.

`COc1ccc(C(=O)O[C@H]2CC[C@@]3(C)[C@@H]4CC[C@H]5[C@]6(O)C[C@H](O)[C@@]7(O)[C@@H](CN8C[C@@H](C)CC[C@H]8[C@@]7(C)O)[C@]6(O)C[C@@]53O[C@]24O)cc1OC` [veratridine] was tested, and the “activation of human NaX-mediated currents” value was “did not invoke any clear human NaX-mediated currents”.
